Values from PubChem BioAssay AID1224830 (NIAID, 2016)

Screen: 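Host factors that control LPS-induced TNF expression in human macrophages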 (primary screen)
Cells: human THP-1 monocytic leukaemia cells, TNF dual-luciferase reporter clone, PMA-differentiated to macrophage-like cells
Knock-down reagent: siRNA pool against human genes, 50 nM
Timing: LPS for 4 h, given about 3 days after siRNA transfection
Challenge: bacterial LPS (TLR4 ligand), 10 ng/ml
Measured: 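Ratio of firefly to renilla light, scaled to the plate median and expressed as a robust z-score per replicate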
Reading the numbers: TNF reporter robust z-score: higher = stronger TNF reporter response to LPS
Rule for the call: 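Each well counts as active if its z-score is over 2.8 or under -1.5; controls are left without a call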
Shown is a random part of about 18,000 deposited reagents. About 2,900 of all reagents (16%) count as active. 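Calls are made per well; low scores hint the gene aids the LPS response, high scores that it dampens it.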 Unmarked entries are inactive. Repeated entries: four replicate wells of each siRNA pool.

no.	gene	TNF reporter robust z-score
1	VPS13A	-0.94
2	VPS13A	0.03
3	VPS13A	-0.05
4	VPS13A	1.02
5	RNF13	1.5
6	RNF13	2.12
7	RNF13	1.44
8	RNF13	2.03
9	TPGS1	0.45
10	TPGS1	0.12
11	TPGS1	-0.03
12	TPGS1	-0.32
13	GCNA	-0.26
14	GCNA	-0.95
15	GCNA	-0.93
16	GCNA	0.58
17	EHD2	1.59
18	EHD2	0.64
19	EHD2	0.4
20	EHD2	-0.21
21	MEIG1	-0.85
22	MEIG1	-0.27
23	MEIG1	0.51
24	MEIG1	-0.34
25	CBARP	0.82
26	CBARP	-0.1
27	CBARP	-0.76
28	CBARP	-0.72
29	KIF27	0.57
30	KIF27	-0.12
31	KIF27	-0.34
32	KIF27	-1.99 (active)
33	GNG8	-0.58
34	GNG8	-1.01
35	GNG8	-0.3
36	GNG8	-0.66
37	RHPN2	-1.7 (active)
38	RHPN2	-1.09
39	RHPN2	-0.79
40	RHPN2	0.01
41	TLX2	-0.45
42	TLX2	0.3
43	TLX2	0.23
44	SPATA6	2.25
45	SPATA6	2.04
46	SPATA6	0.06
47	SPATA6	1.08
48	SAAL1	-0.3
49	SAAL1	3.48 (active)
50	SAAL1	3.37 (active)
51	SAAL1	0.2
52	HIBCH	0.21
53	HIBCH	0.54
54	HIBCH	0.45
55	HIBCH	1.47
56	ST8SIA5	0.63
57	ST8SIA5	1.17
58	ST8SIA5	1.13
59	ST8SIA5	1.36
60	MAU2	-0.82
61	MAU2	-0.23
62	MAU2	-0.13
63	MAU2	-0.11
64	TMEM129	0.18
65	TMEM129	0.3
66	TMEM129	0.68
67	TMEM129	-1.12
68	OR3A4P	-1.06
69	OR3A4P	-0.99
70	OR3A4P	-1.01
71	OR3A4P	-0.88
72	CIMIP2A	0.81
73	CIMIP2A	0.37
74	CIMIP2A	-0.24
75	CIMIP2A	-0.62
76	PITHD1	0.04
77	PITHD1	1.72
78	PITHD1	-0.15
79	PITHD1	0.82
80	VEGFC	-0.94
81	VEGFC	-0.01
82	VEGFC	-0.52
83	VEGFC	-0.17
84	LY6K	0.42
85	LY6K	1.78
86	LY6K	0.13
87	LY6K	-1.38
88	SEM1	-0.3
89	SEM1	1.51
90	SEM1	0.24
91	SEM1	0.4
92	R3HDM4	0.07
93	R3HDM4	0.8
94	R3HDM4	-0.36
95	R3HDM4	0.31
96	MKI67	0.27
97	MKI67	0.74
98	MKI67	2.08
99	MKI67	-0.54
100	CASZ1	3.04 (active)
101	CASZ1	2.61
102	CASZ1	1.24
103	CASZ1	3.37 (active)
104	MAGEH1	0.64
105	MAGEH1	2.65
106	MAGEH1	2.43
107	MAGEH1	2.75
108	ARAF	0.28
109	ARAF	1.82
110	ARAF	1.8
111	ARAF	1.19
